Taken from: PubChem BioAssay AID602196 (INSERM, 2012)

Test: 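Genes whose knock-down alters cisplatin killing of lung cancer cells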
Cell system: human A549 lung cancer cells
Reagent: siRNA pair against human genes
Duration: 48 h transfection before cisplatin; time from cisplatin to read-out not stated
Challenge: cisplatin at a dose killing half of control-siRNA cells; exact dose and duration not given
Measurement: 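Cisplatin cell death as a shift from the 50% death seen with control siRNA; siRNAs toxic or growth-blocking alone scored 0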
Scale: two-siRNA summed score (-2 to +2): higher = both siRNAs protect from cisplatin killing; -2 means both sensitise
Rule for the call: 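Each siRNA scores 0 if harmful alone by LDH or WST-1, otherwise +1 if it reduces and -1 if it increases cisplatin killing; a gene is active when both siRNAs agree (sum +2 or -2)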
Calls: active = both siRNAs shift cisplatin killing the same way; inactive = no consistent shift, or siRNA harmful alone
This is an unselected part of about 23,000 reagents. In the full data, 455 (2%) are marked active. 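Active includes both protection and sensitisation; some change values fall well beyond the stated -50 to +50 range.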 Not all columns of the deposit are shown. The record does not give: the amount of reagent.

WDFY3 [SID131512598] | two-siRNA summed score (-2 to +2) = 0; Outcome = inactive
LGALS14 [SID131516423] | two-siRNA summed score (-2 to +2) = 0; Outcome = inactive
GDF2 [SID131519254] | two-siRNA summed score (-2 to +2) = 1; Outcome = inactive
ITGB1 [SID131508867] | two-siRNA summed score (-2 to +2) = 0; Outcome = inactive
ANK3 [SID131507132] | two-siRNA summed score (-2 to +2) = 0; Outcome = inactive
SMAD7 [SID131513203] | two-siRNA summed score (-2 to +2) = 0; Outcome = inactive
LOC343854 [SID131510022] | two-siRNA summed score (-2 to +2) = 0; Outcome = inactive
SCN2B [SID131505628] | two-siRNA summed score (-2 to +2) = 0; Outcome = inactive
SP100 [SID131517120] | two-siRNA summed score (-2 to +2) = 0; Outcome = inactive
LAMP1 [SID131522033] | two-siRNA summed score (-2 to +2) = 1; Outcome = inactive
LOC345222 [SID131505184] | two-siRNA summed score (-2 to +2) = 0; Outcome = inactive
ANKRD46 [SID131506617] | two-siRNA summed score (-2 to +2) = 0; Outcome = inactive
TCEAL3 [SID131514928] | two-siRNA summed score (-2 to +2) = 0; Outcome = inactive
DPYSL5 [SID131521517] | two-siRNA summed score (-2 to +2) = 1; Outcome = inactive
DNASE2B [SID131514736] | two-siRNA summed score (-2 to +2) = 0; Outcome = inactive
DMAP1 [SID131505593] | two-siRNA summed score (-2 to +2) = 0; Outcome = inactive
LRRK2 [SID131513478] | two-siRNA summed score (-2 to +2) = 0; Outcome = inactive
LOC440931 [SID131515807] | two-siRNA summed score (-2 to +2) = 0; Outcome = inactive
LINC02153 [SID131506754] | two-siRNA summed score (-2 to +2) = 0; Outcome = inactive
FGD3 [SID131509082] | two-siRNA summed score (-2 to +2) = 0; Outcome = inactive

Copied from the listing for reference:
ANKRD46 [SID131506617] | two-siRNA summed score (-2 to +2) = 0; Outcome = inactive
TCEAL3 [SID131514928] | two-siRNA summed score (-2 to +2) = 0; Outcome = inactive

Further records follow:
TRIM38 [SID131506456] | two-siRNA summed score (-2 to +2) = 0; Outcome = inactive
IFNW1 [SID131506858] | two-siRNA summed score (-2 to +2) = 0; Outcome = inactive
USP11 [SID131503181] | two-siRNA summed score (-2 to +2) = 0; Outcome = inactive
KAT2A [SID131503642] | two-siRNA summed score (-2 to +2) = 0; Outcome = inactive
LOC92659 [SID131506493] | two-siRNA summed score (-2 to +2) = 0; Outcome = inactive
MYL3 [SID131503641] | two-siRNA summed score (-2 to +2) = 0; Outcome = inactive
STK4 [SID131506849] | two-siRNA summed score (-2 to +2) = 0; Outcome = inactive
PCDHB16 [SID131503526] | two-siRNA summed score (-2 to +2) = 0; Outcome = inactive
CCDC191 [SID131508568] | two-siRNA summed score (-2 to +2) = 0; Outcome = inactive
DOCK7 [SID131505139] | two-siRNA summed score (-2 to +2) = 0; Outcome = inactive
LOC441464 [SID131517348] | two-siRNA summed score (-2 to +2) = 0; Outcome = inactive
